Results published in PubChem BioAssay AID330 (DTP/NCI, 2004).
The list does not hold the whole screen: it gathers tests that were run many times, whatever their T/C, doses with no T/C, and many T/C values between a quarter and a half above the control. Further doses and runs are listed elsewhere. T/C gives the treated animals as a percentage of the vehicle group. Some entries give survivors of the animals treated and no T/C: the source files T/C as zero there, which appears to mark a toxic dose or a test without result, not a measured value. Some survivor counts are full or nearly so, which does not show that the dose was tolerated: the source hardly ever lists a survival T/C far under the control, and the zero likely stands for such cases as well. Counts of survivors are from the toxicity check (mostly the fifth day) where no day follows; animals may have died later. Schedules are NCI's codes, taken here to give the interval after Q, in days (D) or hours (H), and the number of doses after X. Some entries hold several experiments; the results are listed from low to high. For survival time, this PubChem deposit counts one and a half times the control or more as active, and values a quarter to a half above the control carry no call in these data; other NCI protocols may use other cut-offs. Some T/C values carry the count of animals alive at the toxicity check (mostly the fifth day); where none is given, no animal had died by that day.

System: P388 leukemia ip, CD2F1 mice, survival T/C
Assay: NCI In Vivo Anticancer Drug Screen. Data for tumor model P388 Leukemia (intraperitoneal) in CD2F1 (CDF1) mice
Conditions: T/C endpoint: median survival time, higher T/C = longer survival
[1] = dose: 120.0 mg/kg/injection, schedule: Q01DX005 (ip), vehicle: saline
[2] = dose: 240.0 mg/kg/injection, schedule: Q01DX005 (ip), vehicle: saline
[3] = dose: 100.0 mg/kg/injection, schedule: Q01DX009 (ip), vehicle: Klucel (hydroxypropylcellulose) (HPC)
[4] = dose: 200.0 mg/kg/injection, schedule: Q01DX009 (ip), vehicle: Klucel (hydroxypropylcellulose) (HPC)
[5] = dose: 50.0 mg/kg/injection, schedule: Q01DX005 (ip), vehicle: saline with Tween-80
[6] = dose: 200.0 mg/kg/injection, schedule: Q01DX001 (ip), vehicle: saline with Tween-80
[7] = dose: 25.0 mg/kg/injection, schedule: Q01DX009 (ip), vehicle: other

## COC(=O)CN(C)P(=O)(N1CC1)N1CC1
dose: 3.75 mg/kg/injection, schedule: Q01DX005 (ip), vehicle: saline with Tween-80
  T/C: 138 % of control
dose: 7.5 mg/kg/injection, schedule: Q01DX005 (ip), vehicle: saline
  T/C: 146 % of control
dose: 15.0 mg/kg/injection, schedule: Q01DX005 (ip), vehicle: saline with Tween-80
  survivor count: 5 of 6
dose: 60.0 mg/kg/injection, schedule: Q01DX005 (ip), vehicle: saline
  survivor count: 5 of 6
[1]
  survivor count: 0 of 6
[2]
  survivor count: 0 of 6

## NC(CSP(=O)(O)O)=NCC12CC3CC(CC(C3)C1)C2
dose: 25.0 mg/kg/injection, schedule: Q01DX009 (ip), vehicle: saline with Tween-80
  survivor count: 0 of 6

## CCn1c2ccccc2c2cc(N/C=C/C3=[N+](C)c4ccccc4C3(C)C)ccc21
dose: 12.5 mg/kg/injection, schedule: Q01DX009 (ip), vehicle: Klucel (hydroxypropylcellulose) (HPC)
  survivor count: 6 of 6
dose: 50.0 mg/kg/injection, schedule: Q01DX009 (ip), vehicle: Klucel (hydroxypropylcellulose) (HPC)
  survivor count: 1 of 6
[3]
  survivor count: 0 of 6
[4]
  survivor count: 0 of 6

## O=C1NC2(CCCCC2)C(=O)N1CCCCN(CCCl)CCCl
dose: 3.0 mg/kg/injection, schedule: Q01DX005 (ip), vehicle: saline
  T/C: 128 % of control
dose: 12.0 mg/kg/injection, schedule: Q01DX005 (ip), vehicle: saline
  T/C: 146 % of control
dose: 12.5 mg/kg/injection, schedule: Q01DX005 (ip), vehicle: saline
  T/C: 127 % of control [5 of 6 alive]
dose: 25.0 mg/kg/injection, schedule: Q01DX005 (ip), vehicle: saline
  T/C: 141 % of control

## O=C1C=CC(=O)N1c1ccccc1[N+](=O)[O-]
dose: 3.0 mg/kg/injection, schedule: Q01DX009 (ip), vehicle: saline with Tween-80
  survivor count: 4 of 6
dose: 12.0 mg/kg/injection, schedule: Q01DX009 (ip), vehicle: saline with Tween-80
  survivor count: 3 of 6

## CC(N)=S=O
[1]
  survivor count: 3 of 6
[2]
  survivor count: 0 of 6

## c1ccc(C2CC(c3ccc(C4=NN(c5ccccc5)C(c5ccccc5)C4)cc3)=NN2c2ccccc2)cc1 (configuration not stated)
dose: 100.0 mg/kg/injection, schedule: Q04DX003 (ip), vehicle: saline with Tween-80
  survivor count: 6 of 6

## O=C(Nc1cccc(Cl)c1Cl)OCCCc1ccncc1
dose: 200.0 mg/kg/injection, schedule: Q01DX009 (ip), vehicle: saline with Tween-80
  survivor count: 6 of 6

## CC1=CC2N(C=C1)C(c1cccc([N+](=O)[O-])c1)=NON2c1cc(C)ccn1 (configuration not stated)
[5]
  survivor count: 6 of 6

## CN(C)CCC#N
dose: 400.0 mg/kg/injection, schedule: Q01DX009 (ip), vehicle: saline
  survivor count: 0 of 6

## CCCCNP1(NCCCC)=NP(NCCCC)(NCCCC)=NP(NCCCC)(NCCCC)=NP(NCCCC)(NCCCC)=N1
[5]
  T/C: 127 and 128 % of control [5 of 6 alive]
dose: 100.0 mg/kg/injection, schedule: Q01DX005 (ip), vehicle: saline with Tween-80
  survivor count: 5 of 6
dose: 200.0 mg/kg/injection, schedule: Q01DX005 (ip), vehicle: saline with Tween-80
  survivor count: 1 of 6

## Cc1ccccc1N=Cc1ccc(N(C)C)cc1
dose: 400.0 mg/kg/injection, schedule: Q01DX009 (ip), vehicle: saline with Tween-80
  survivor count: 6 of 6

## CCOC(=O)NC(=S)c1ccc[nH]1
[3]
  survivor count: 3 of 6
[4]
  survivor count: 0 of 6

## Cc1sc2c(c1C)c(=O)[nH]c1c(C#N)c(-c3ccc(Cl)cc3)cn12
dose: 120.0 mg/kg/injection, schedule: Q01DX005 (ip), vehicle: saline with Tween-80
  survivor count: 5 of 6

## CCCCCc1cc(O)c2c(c1)OC(C)(C)[C@@H]1CCC(C)=C[C@@H]21
dose: 512.0 mg/kg/injection, schedule: Q01DX005 (iv), vehicle: other
  survivor count: 3 of 6

## O=C1c2ccccc2C(=O)N1CCc1ccccc1Br
dose: 200.0 mg/kg/injection, schedule: Q01DX005 (ip), vehicle: Klucel (hydroxypropylcellulose) (HPC)
  survivor count: 5 of 5

## CCCCCCCCCCCCCCCc1cccc(O)c1C(=O)O
dose: 200.0 mg/kg/injection, schedule: Q01DX005 (ip), vehicle: distilled water + Tween-80
  survivor count: 0 of 6

## c1ccc(-c2cc3nccnc3[nH]2)cc1
dose: 240.0 mg/kg/injection, schedule: Q01DX005 (ip), vehicle: Klucel (hydroxypropylcellulose) (HPC)
  survivor count: 0 of 6

## Cc1c2ccn(Cc3ccccc3)cc2c(C)c2c1nc1ccccc12
dose: 77.0 mg/kg/injection, schedule: Q04DX002 (ip), vehicle: saline with Tween-80
  survivor count: 5 of 6
dose: 154.0 mg/kg/injection, schedule: Q04DX002 (ip), vehicle: saline with Tween-80
  survivor count: 1 of 6

## CCOC(=O)c1c(C#N)c2ccccc2n1O
[6]
  survivor count: 2 of 6

## C[C@@H]1O[C@H]2O[C@@H]3[C@@H](C)O[C@@H](c4ccc5c(c4O)C(=O)c4ccc(C[C@@](C)(O)CC(=O)O)c(O)c4C5=O)C[C@H]3O[C@H]2CC1=O
dose: 188.0 mg/kg/injection, schedule: Q01DX005 (ip), vehicle: Klucel (hydroxypropylcellulose) (HPC)
  survivor count: 3 of 6

## Cc1cc(NCCCCNCCCNc2cc(C)nc3cc([N+](=O)[O-])ccc23)c2ccc([N+](=O)[O-])cc2n1
dose: 1.56 mg/kg/injection, schedule: Q01DX009 (ip), vehicle: other
  T/C: 128 % of control
dose: 3.13 mg/kg/injection, schedule: Q01DX009 (ip), vehicle: other
  T/C: 130 % of control
dose: 6.25 mg/kg/injection, schedule: Q01DX009 (ip), vehicle: other
  T/C: 139 and 140 % of control
dose: 12.5 mg/kg/injection, schedule: Q01DX009 (ip), vehicle: other
  T/C: 140 % of control
[7]
  T/C: 132 % of control
  survivor count: 6 of 6
dose: 50.0 mg/kg/injection, schedule: Q01DX009 (ip), vehicle: other
  survivor count: 0 of 6 and 2 of 6
dose: 100.0 mg/kg/injection, schedule: Q01DX009 (ip), vehicle: other
  survivor count: 0 of 6
dose: 200.0 mg/kg/injection, schedule: Q01DX009 (ip), vehicle: other
  survivor count: 0 of 6

## O=C1c2ccccc2-n2c1nc1ccc([N+](=O)[O-])cc1c2=O
dose: 100.0 mg/kg/injection, schedule: Q04DX002 (ip), vehicle: Klucel (hydroxypropylcellulose) (HPC)
  survivor count: 1 of 6
dose: 200.0 mg/kg/injection, schedule: Q04DX002 (ip), vehicle: Klucel (hydroxypropylcellulose) (HPC)
  survivor count: 1 of 6
dose: 400.0 mg/kg/injection, schedule: Q01DX005 (ip), vehicle: Klucel (hydroxypropylcellulose) (HPC)
  survivor count: 0 of 6

## CC(C)=CCC(OC(=O)C=C(C)C)c1cc(O)c2c(O)ccc(O)c2c1O.[Mn] (configuration not stated)
[6]
  survivor count: 2 of 6
dose: 400.0 mg/kg/injection, schedule: Q01DX001 (ip), vehicle: saline with Tween-80
  survivor count: 0 of 6
